Assay results reported in US20070111990A1, “3-Aza-1-oxa-dibenzo[e,h]azulenes for the treatment of central nervous system diseases and disorders” (GLAXOSMITHKLINE ISTRAZIVACKI CENTAR ZAGREB D.O.O., priority 2003, published 2007).
Some of these results come from one statement about several compounds together. Some ranges recur; such a range may be that of the whole group of compounds.

System: Male Balb/cJ mice
Experiment: Tail suspension test in mice
Type: in vivo
Conditions: test doses of 1 mg/kg, 0.03 mg/kg and 0.001 mg/kg, 30 min prior to testing, vs control group

Compound | reduction of immobility
Cc1nc2c(o1)-c1ccccc1Oc1ccc(Cl)cc1-2 [5-chloro-2-methyl-1,8-dioxa-3-aza-dibenzo[e,h]azulene] | 40-100%
CN(C)CCOCc1nc2c(o1)-c1ccccc1Oc1ccc(Cl)cc1-2 [[2-(5-chloro-1,8-dioxa-3-aza-dibenzo[e,h]azulen-2-ylmethoxy)-ethyl]-dimethyl-amine] | 40-100%
CN(C)CCOCc1nc2c(o1)-c1ccccc1Sc1ccc(Cl)cc1-2 [[2-(5-chloro-1-oxa-8-thia-3-aza-dibenzo[e,h]azulen-2-ylmethoxy)-ethyl]-dimethyl-amine] | 40-100%
CN(C)CCOCc1nc2c(o1)-c1cc(Cl)ccc1Oc1ccccc1-2 [[2-(11-chloro-1,8-dioxa-3-aza-dibenzo[e,h]azulen-2-ylmethoxy)-ethyl]-dimethyl-amine] | 40-100%
CN(C)CCOCc1nc2c(o1)-c1cc(Cl)ccc1Sc1ccccc1-2 [[2-(11-chloro-1-oxa-8-thia-3-aza-dibenzo[e,h]azulen-2-ylmethoxy)-ethyl]-dimethyl-amine] | 40-100%
CN(C)CCOCc1nc2c(o1)-c1ccccc1Sc1ccccc1-2 [dimethyl-[2-(1-oxa-8-thia-3-aza-dibenzo[e,h]azulen-2-ylmethoxy)-ethyl]-amine] | 40-100%
